Binding data for one molecule are collected here from publication PMC12097062.

No constants are given. Whether binding was seen depends on the method and setting. For some assays here: Binding seen in cells or lysates may run through a third protein. Some results given as binding are weak or reduced against the parent protein; the word gives no strength.

In experiment [1] the target is Biotin-LACK156-173 (biotinylated 156-173 peptide of the Leishmania homolog of receptors for activated C kinase) (L. major). As to the kind of experiment: co-IP; live MH7A cells incubated with 0.5 mM Biotin-LACK156-173 (or biotin) at 4 °C for 3 h and 30 min at room temperature, cross-linked with 1 mM BS3, lysed; 1 mg protein on streptavidin-coated magnetic beads at 4 °C for 4 h; Western blot; only the target purified. On the technique in general: A western blot detects proteins with antibodies after separation by electrophoresis.

Experiment [2] deals with LACK156-173 (156-173 peptide of the Leishmania homolog of receptors for activated C kinase), unlabelled (L. major). In words: cellular thermal shift assay (CETSA); MH7A lysate incubated with LACK156-173 (2 mg/mL) or DMSO at room temperature for 1 h, heated for 3 min at the given temperature, soluble fraction analysed by Western blot; only the target purified.

B1: Dolichyl-Diphosphooligosaccharide-Protein Glycosyltransferase Non-Catalytic Subunit (DDOST) (protein, UniProt P39656 43-456)
chain: SGPRTLVLLDNLNVRETHSLFFRSLKDRGFELTFKTADDPSLSLIKYGEFLYDNLIIFSPSVEDFGGNINVETISAFIDGGGSVLVAASSDIGDPLRELGSECGIEFDEEKTAVIDHHNYDISDLGQHTLIVADTENLLKAPTIVGKSSLNPILFRGVGMVADPDNPLVLDILTGSSTSYSFFPDKPITQYPHAVGKNTLLIAGLQARNNARVIFSGSLDFFSDSFFNSAVQKAAPGSQRYSQTGNYELAVALSRWVFKEEGVLRVGPVSHHRVGETAPPNAYTVTDLVEYSIVIQQLSNGKWVPFDGDDIQLEFVRIDPFVRTFLKKKGGKYSVQFKLPDVYGVFQFKVDYNRLGYTHLYSSTQVSVRPLQHTQYERFIPSAYPYYASAFSMMLGLFIFSIVFLHMKEKEKSD
In the case of B1, the binding entry in experiment [1] and in experiment [2] was “binds” throughout.
